The target of the assay is T1, GFP-Hnf4[178–493] (Drosophila melanogaster) (UniProt P49866).
T1 sequence: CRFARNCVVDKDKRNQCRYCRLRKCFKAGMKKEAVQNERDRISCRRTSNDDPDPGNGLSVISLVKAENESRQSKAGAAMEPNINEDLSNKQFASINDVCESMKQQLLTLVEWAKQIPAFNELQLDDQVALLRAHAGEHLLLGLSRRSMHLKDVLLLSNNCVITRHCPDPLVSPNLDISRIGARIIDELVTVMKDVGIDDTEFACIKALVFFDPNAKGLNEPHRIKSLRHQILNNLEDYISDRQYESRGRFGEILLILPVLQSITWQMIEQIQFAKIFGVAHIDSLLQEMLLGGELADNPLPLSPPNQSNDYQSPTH
Nature of the assay: co-IP; S2R+ cells co-transfected; CHAPS lysis buffer; GFP-tagged protein immunoprecipitated with anti-GFP nanobody on ALFA-tag magnetic resin overnight at 4°C; western blot. Background: In western blotting, separated proteins are transferred to a membrane and probed.

By UniProt entry, the sequences of proteins in these tests, tags left out.
UniProt P18431: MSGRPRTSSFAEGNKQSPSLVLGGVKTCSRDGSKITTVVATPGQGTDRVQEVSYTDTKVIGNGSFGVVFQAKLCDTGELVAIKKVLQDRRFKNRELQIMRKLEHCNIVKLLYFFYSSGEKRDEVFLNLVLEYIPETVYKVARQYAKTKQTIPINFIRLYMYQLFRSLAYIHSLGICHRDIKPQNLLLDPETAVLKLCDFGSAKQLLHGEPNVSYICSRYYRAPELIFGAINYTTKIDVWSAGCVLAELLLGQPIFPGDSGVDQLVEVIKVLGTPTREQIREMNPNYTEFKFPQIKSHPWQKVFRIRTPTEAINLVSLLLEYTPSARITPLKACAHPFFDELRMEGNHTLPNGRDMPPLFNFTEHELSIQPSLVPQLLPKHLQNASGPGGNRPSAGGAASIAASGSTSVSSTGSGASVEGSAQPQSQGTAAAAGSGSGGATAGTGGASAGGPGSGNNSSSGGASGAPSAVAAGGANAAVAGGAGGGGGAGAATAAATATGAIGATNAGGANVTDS

Binding data for one substance are collected here from publication doi:10.1101/2025.10.10.681672.

These are yes or no findings as the source states them, for the method shown. Binding seen in cells or lysates may run through a third protein. Some entries that bind do so weakly or less than the wild type. Where a sequence is shown, tags or fusion partners need not be part of it.

For the substance “Sgg-3xHA (from UniProt P18431 1-514) (enzyme)”, the binding entry is reported as “binds”.
